# At least one compound was matched to its structure with a doubt left.
# System: lipid peroxidation in pig retina homogenate
# Assay: Test for evaluating in vitro inhibition of lipid peroxidation (thiobarbituric acid method)
# Assay type: biochemical
# Conditions: 500 μM cysteine and 5 μM FeSO4, 30 minutes at 37° C., malondialdehyde, read-out: in vitro inhibition of lipid peroxidation (50% inhibition concentration IC50)
# Method: (Test for Evaluating in vitro Inhibition of Lipid Peroxidation)
# Evaluation of the in vitro inhibition of lipid peroxidation of the compound of the present invention was conducted in accordance with the method disclosed by Malvy et al. (Malvy, C., et al., Biochemical and Biophysical Research Communications, 1980, vol. 95, pp. 734 to 737).
# As the organ, retinas that had been separated from pig eyeballs and subsequently stored at −80° C. were used. At the time of use, a 5-fold excess of a phosphate-buffered physiological saline solution (pH 7.4) was added, and the mixture was homogenized using a microhomogenizer (PHYSCOTRON, NITI-ON).
# To this pig retina homogenate were added 0.15M KCl, the compound of the present invention, 500 μM cysteine and 5 μM FeSO4, and the mixture was then incubated for 30 minutes at 37° C.
# The malondialdehyde generated upon decomposition of the lipid peroxide was measured using the thiobarbituric acid method. Based on the measured values, the 50% inhibition concentration (hereafter also referred to as “IC50”) of the compound of the present invention was determined.
row,Compound,IC50 [nM]
1,"Cc1c(C)c2c(c(CN3CCN(Cc4ccc(-n5ccnc5)cc4)CC3)c1N)CC(C)(C)O2 [Compound 7, 4-(5-amino-2,2,6,7-tetramethyldihydrobenzofuran-4-ylmethyl)-1-[4-(imidazol-1-yl)phenylmethyl]piperazine]",370
2,"Cc1c(C)c2c(c(CNc3ccc(-c4ccn[nH]4)cc3)c1N)CC(C)(C)O2 [Compound 29, 5-(4-(5-amino-2,2,6,7-tetramethyldihydrobenzofuran-4-ylmethylamino)phenyl)pyrazole]",360
3,"Cc1c(C)c2c(c(COc3ccc(-c4ccn[nH]4)cc3)c1N)CC(C)(C)O2 [Compound 32, 5-(4-(5-amino-2,2,6,7-tetramethyldihydrobenzofuran-4-ylmethoxy)phenyl)pyrazole]",280
4,"Cc1c(C)c2c(c(CN3CCC(n4ccc(-c5ccccc5)n4)CC3)c1N)CC(C)(C)O2 [Compound 69, 1-(1-(5-amino-2,2,6,7-tetramethyldihydrobenzofuran-4-ylmethyl)piperidin-4-yl)-3-phenylpyrazole]",310

# — US20090275753A1, “ORTHO-SUBSTITUTED ANILINE DERIVATIVE AND ANTIOXIDANT DRUG” (NIPPON SODA CO., LTD., priority 2005, published 2009)
